About 1,400 (4.5%) of roughly 31,000 sequences were called active.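 How the source made its calls: active means median seed-adjusted z-score above 1 or below -1; inactive means the rest.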 This is one part of the list.

The assay can be described thus: Novel Modifiers of Survival Motor Neuron (SMN) Protein: Gene Identification via Genome-wide siRNA Screen.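 Further: luminescence tracks full-length SMN protein made from the SMN2 reporter.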 The settings on record: HEK293T SMN2-luciferase reporter, siRNA knockdown, 72 h; actives lie on both sides. The method, boiled down: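 siRNA screen, 10418 genes ×3 siRNAs; 1 pmol/well, lipid reverse transfection into HEK293T SMN2-luc reporter line. 72 h, 37 °C, 5% CO2; ONE-Glo readout. Data: neg-ctrl normalized, log10, MAD; hit = MAD >1.0 or < -1.0.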
A general note: A reporter such as luciferase makes a cellular process visible.
For the sequence GGAGUAUAAGUUCUACUAUTT against TYK2, the median seed-adjusted z-score is inactive: -0.549.

Regarding UGAUGUGAGUUCUUCGAAUTT against FCN1, the median seed-adjusted z-score is inactive: 0.346.

For the sequence GGGAAUUUGUGAGACAGUATT against G3BP1, the median seed-adjusted z-score is inactive: -0.593.

GCAUGUACAUCCACCCAGATT against TBX2: the median seed-adjusted z-score was inactive: 0.42.

For the sequence UGUCAGUGCUCGGCUGUAATT against AIRE, the median seed-adjusted z-score was inactive: 0.308.

For the sequence CCUGUUUCCUAUUAACGAATT against GRM3, the median seed-adjusted z-score was inactive: -0.401.

On to CAUUCACUUUGACACCAUATT against HSD17B7, for which the median seed-adjusted z-score is inactive: 0.0836.

Regarding GGAUUAUAUGCUGUAUGUATT against CADM1, the median seed-adjusted z-score is inactive: 0.419.

Regarding CCUAUGAUCCAAUGCUUAATT against DDR2, the median seed-adjusted z-score was inactive: 0.252.

With GGACUUCGGUGUGAAUGGUTT against AACS, the median seed-adjusted z-score was inactive: 0.232.

In the case of GUGGAAAAGCGGAAAUGCATT against IAPP, the median seed-adjusted z-score was inactive: -0.157.

On to CCAUCUCGAAUGGAUCGUATT against SMARCC1, for which the median seed-adjusted z-score was inactive: -0.0304.

Turning to GCAUCGCCGAGAAGGUUAATT against TXNL4A, the median seed-adjusted z-score is inactive: -0.42.

As for CAGCAAAACUGAUAGAGAATT against EEF2, the median seed-adjusted z-score is inactive: -0.159.

For GAGGAACAGUUAAUUGAAUTT against SNAPC4, the median seed-adjusted z-score is inactive: -0.62.

On to CGCAGUGAGUUUGAACAGATT against SETD1A, for which the median seed-adjusted z-score was inactive: 0.0595.

With GCAUCAUUGAAGGACUAGATT against HEY1, the median seed-adjusted z-score is inactive: -0.023.

CGAACCUUCUUCUCCGAAATT against ZNF521: the median seed-adjusted z-score was inactive: -0.331.

In the case of ACACCAAUAUUAACACGCUTT against WISP2, the median seed-adjusted z-score is inactive: -0.0731.

GCAACGUAAAAAUUGUGAATT against ATP5E: the median seed-adjusted z-score is inactive: -0.724.

For AGGACUCCGGCAUCACAUATT against DUSP3, the median seed-adjusted z-score is inactive: -0.00768.

GAUUUACUAUUUGAACAGATT against ADAT1: the median seed-adjusted z-score is inactive: 0.404.

With CCAUGACUGAUAUUCGCAATT against CAPN6, the median seed-adjusted z-score is inactive: 0.0288.

As to GGUUACCUUUUUCACAAGATT against UGT2B10, the median seed-adjusted z-score was inactive: 0.989.

As for CGAGAUAACGUGGACCUAUTT against ANAPC7, the median seed-adjusted z-score is inactive: -0.263.

Take GCUAUGAGCUGAGCCCUCATT against RARG: the median seed-adjusted z-score is inactive: -0.0492.

As to CCUUGUCUGUUUUGAGCAATT against CHD1L, the median seed-adjusted z-score is inactive: 0.63.

Regarding GACCCGGUAUAUGAACUCATT against UCP3, the median seed-adjusted z-score is active: 1.23.

As to GUCUAGAUGAUGCCUUAAATT against DHFR, the median seed-adjusted z-score is inactive: -0.952.

CGGGAAAGGGAGAAUCUUATT against GOSR1: the median seed-adjusted z-score was inactive: -0.252.

For CCUUGGAACUUCAUACUAUTT against TRIM38, the median seed-adjusted z-score was inactive: -0.375.

CAACUAAUUUCUAAUCGUUTT against ADAD1: the median seed-adjusted z-score was inactive: -0.0795.

Turning to GCAGUAUGCAAGAAGGAUATT against CCNB3, the median seed-adjusted z-score is inactive: 0.

Take AGGUUGAACUGCAAGCCAATT against KRT6C: the median seed-adjusted z-score was inactive: -0.275.

As for GCCUGGAGAUAUUAUUCAUTT against ST8SIA2, the median seed-adjusted z-score was inactive: 0.516.

As for CGUCUUCUACCGCAACCAUTT against PHYHIP, the median seed-adjusted z-score is inactive: 0.18.

Take GUUGAUUUAUCAUUAGUGATT against KYNU: the median seed-adjusted z-score was inactive: 0.00735.

Turning to UCACCGUUGCUGAACAAAATT against DUS2L, the median seed-adjusted z-score was inactive: -0.705.

Consider CGAUAGCACCUUCCUGUUUTT against GALT, for which the median seed-adjusted z-score is inactive: 0.484.

In the case of GGACCUCCCUGUGAAUGAUTT against OAZ2, the median seed-adjusted z-score is inactive: 0.66.

On to GCUAAGAACAGAAAGGACATT against KRT9, for which the median seed-adjusted z-score is inactive: 0.545.

CAAAGACGAUGACUUCGAATT against MAP2K2: the median seed-adjusted z-score was inactive: -0.502.

Regarding GGAGAAUUACGAUUAGGGATT against CSNK1G3, the median seed-adjusted z-score is inactive: 0.

For the sequence GGUGAGCCCUCUCCUAAGATT against HMGA2, the median seed-adjusted z-score is inactive: -0.327.

Regarding GGAUGACGGAGUAAUCUUATT against BCMO1, the median seed-adjusted z-score was inactive: 0.53.

As for GAGGAUUAGUAGAUCACAATT against RG9MTD2, the median seed-adjusted z-score is inactive: -0.599.

GACCUUGACUCGGCUAUAATT against ATAD1: the median seed-adjusted z-score is inactive: -0.544.

In the case of GGAGCAAGUCUGAAGCUGATT against KRT76, the median seed-adjusted z-score was inactive: 0.726.

On to CCAACACCUAAGUCACGCATT against SLC25A12, for which the median seed-adjusted z-score is inactive: -0.275.

With GCUGCACGACUUUACCCAATT against PIK3CG, the median seed-adjusted z-score is inactive: 0.576.

With AGAGGCUACUUUGAAAACATT against APOBEC3H, the median seed-adjusted z-score is inactive: 0.256.

As to UGGAAUCUGUGGUAAAGAATT against HGS, the median seed-adjusted z-score is active: 1.16.

Turning to GAACCAGAGAUUAUAAGAATT against PRIM1, the median seed-adjusted z-score was inactive: -0.23.

Turning to CUGUGGAAUCUGUACCCUUTT against TRIM35, the median seed-adjusted z-score was inactive: -0.0463.

Turning to GAGCGAUUACAGCAAAUAUTT against KRT12, the median seed-adjusted z-score is inactive: -0.0457.

Take CAGCUUCCUUACUAUGAAATT against RBM11: the median seed-adjusted z-score was inactive: -0.0341.

For the sequence GGUUAGUCAGAUACGAAAATT against PI4K2B, the median seed-adjusted z-score was inactive: 0.0345.

For the sequence GCGUUAAGUCUAAAUGAGATT against PCDHA12, the median seed-adjusted z-score was inactive: 0.0761.

In the case of GGCAUAUAAUUAUAGAGGATT against TXNDC10, the median seed-adjusted z-score was inactive: -0.0542.

In the case of ACAACCCUCUUAAAACUAATT against IGF2, the median seed-adjusted z-score is inactive: -0.0306.

As to CCCGAGAACUUAAUCGCUATT against ADAMTS16, the median seed-adjusted z-score was inactive: -0.133.

For GGUAAACGAGAUCAACUUUTT against DVL3, the median seed-adjusted z-score is inactive: -0.57.

Regarding CACUGAUUUUGGAUGCUCUTT against HES1, the median seed-adjusted z-score is inactive: -0.262.

CAAUGGAUCCUGUAUCCAATT against TNFAIP6: the median seed-adjusted z-score was inactive: 0.

Consider CGGCUAUGACAAGUCAAUATT against PKDREJ, for which the median seed-adjusted z-score is inactive: 0.376.

For GCAUUGGAACUCUUAACUATT against KRR1, the median seed-adjusted z-score was inactive: -0.0353.

As to GGAUCAAUCGUGUCACCGATT against OGDH, the median seed-adjusted z-score is inactive: 0.253.

On to UCCUAGAUAUCAUCCUGAATT against KCNH4, for which the median seed-adjusted z-score is inactive: -0.769.

With CCAGCACAGUAGGACCUCATT against LPAL2, the median seed-adjusted z-score is inactive: 0.7.

Consider GGAUAGGAUUCAGAGUUCATT against GALNT5, for which the median seed-adjusted z-score is inactive: -0.279.

With GAGGUUCCAGUAAACGAAATT against UPF2, the median seed-adjusted z-score was inactive: -0.376.

Take GUAACAUCUGAGACAGAUATT against AKT3: the median seed-adjusted z-score was inactive: -0.0936.

On to GCAGAUCACAUGAAGAGAATT against DHX38, for which the median seed-adjusted z-score was inactive: -0.723.

Take GCCUUCAGAUGUUGCAAUUTT against ZNF700: the median seed-adjusted z-score is inactive: 0.

In the case of GAUGAUGAAUUAGUAAUGATT against CYP20A1, the median seed-adjusted z-score was inactive: -0.796.

As for GGAUCAAGAAGACACUACATT against ACVRL1, the median seed-adjusted z-score was inactive: -0.361.

As to GGAAUGCUUUAGUCGUGGATT against EHD4, the median seed-adjusted z-score was inactive: 0.333.

Consider CCGACUACCUGAUCCUACUTT against GPR152, for which the median seed-adjusted z-score is inactive: -0.9.

For CAAACGACCCAGACGAAGATT against SIGLEC6, the median seed-adjusted z-score was inactive: 0.0176.

On to GCAUCCAGUUUCUACCCUATT against LDHAL6A, for which the median seed-adjusted z-score is inactive: -0.15.

With GUUAACAAGUGGAAUGGAATT against FBXW7, the median seed-adjusted z-score is inactive: 0.

Regarding CAUGAUACAGGGAAUAAAATT against ZNF619, the median seed-adjusted z-score was inactive: -0.536.

For GCAGCACUGAGAUUAGGCATT against LIMA1, the median seed-adjusted z-score is inactive: -0.359.

With GCUCCGCACUAGAUCUAUUTT against STK24, the median seed-adjusted z-score was inactive: 0.0531.

CGCUCUACCAUGUACUCUATT against SEMA5B: the median seed-adjusted z-score was inactive: 0.641.

With CAUGACUUCUGAUAAUGCATT against ATG4C, the median seed-adjusted z-score was inactive: -0.414.

In the case of GCUGUACUCCCUUACAUUATT against PSMD10, the median seed-adjusted z-score is inactive: 0.265.

Take AUAUCACAAUACACUGUGATT against FCGR1B: the median seed-adjusted z-score was inactive: 0.2.

Regarding CCUCAUUGAUCAUCACCGATT against ZNF567, the median seed-adjusted z-score was inactive: -0.114.

As for AGGACAUCAGCGAAACCAATT against KCNH3, the median seed-adjusted z-score is inactive: -0.509.

On to GUAUAUUCAUGGAUCUGAATT against BMP8B, for which the median seed-adjusted z-score is inactive: 0.

Consider CCCAUGGACUACGCCUUUATT against DMRTA2, for which the median seed-adjusted z-score was inactive: 0.252.

Take GGCGGAGCCUUAAUGAUGATT against ATN1: the median seed-adjusted z-score is inactive: -0.357.

In the case of GUAUGCUCCCGAUCAAGUATT against APOBEC3A, the median seed-adjusted z-score was inactive: 0.467.

Turning to CUAUGAACAGUGUCAAAUATT against PIGB, the median seed-adjusted z-score was inactive: 0.199.

Consider ACAGCACAUGAGACAGAUATT against CBX1, for which the median seed-adjusted z-score is inactive: 0.

As for UGAUGAGCUGCAAAAUGUATT against CLDN7, the median seed-adjusted z-score is inactive: 0.0208.

GGAAAUUGACUUUCUAAAATT against KRT84: the median seed-adjusted z-score is inactive: -0.645.

In the case of CGAGGACGAUGACUGCUUATT against LRP8, the median seed-adjusted z-score was inactive: -0.547.

As to GGUGGGAACCUAUCAUACATT against MEP1A, the median seed-adjusted z-score was inactive: 0.209.

As for CAACUCCACCUUCGCCUAATT against MIF, the median seed-adjusted z-score was inactive: 0.214.

For GCCGGAGUUUUGAAUGAAATT against HSD17B2, the median seed-adjusted z-score was inactive: 0.521.

Take GCGGCUCUCUGUUGACUAUTT against TUBA4A: the median seed-adjusted z-score was inactive: -0.594.

Take GCCUUUAUCUCUCUCACCATT against ZNF670: the median seed-adjusted z-score was inactive: 0.

In the case of GGAAGAUUGUAUCUGAUUATT against CPA4, the median seed-adjusted z-score is inactive: -0.182.

Regarding GAUGCAAACUAGUCCUGAATT against MLC1, the median seed-adjusted z-score is inactive: -0.284.

On to CCACUACGGUAUUAGAGCATT against CDH19, for which the median seed-adjusted z-score is inactive: -0.409.

The record behind these values is PubChem BioAssay AID1347426 (Functional Genomics Laboratory (NCATS/FGL), 2020).
